The whole screen tested about 320,000 compounds, of which about 2,100 (0.66%) were called active. Inconclusive means that the source gave no clear call. Such entries were picked first, then a sample of the others. Calls follow the shape of the dose curve; as a rule, active = well fitted inhibition curve with a large enough effect in the signal ratio, with a control signal flat (not every such curve was filed as active); inconclusive = small, poorly fitted or top-dose-only effect, or effect the other way, or a change in a side signal; inactive = flat fitted curve, though single readings scatter; the % refers to the signal ratio. A potency beside an inconclusive call is a rough fit, not a confirmed value.
test: qHTS Assay for Lipid Storage Modulators in Drosophila S3 Cells; conditions: BODIPY lipid droplet fluorescence, 18-24 h, cells fed with added oleic acid; lipid storage change, negative = inhibition: at 46.1 µM (top of the series) unless noted
How it was run: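 Drosophila S3 cells got compounds at several concentrations plus oleic acid (400 uM solution). Laser-scanning cytometry with 488 nm excitation read lipid droplets at 500-530 nm and cells at 575-640 nm. Percent activity was relative to 20 uM Triacsin C.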
% is scaled to controls: 0 for no effect and ±100 for the full control effect; potency is read from the fitted curve at half-maximal effect.

| SMILES | lipid storage change, negative = inhibition | Potency |
| --- | --- | --- |
| COc1ccc(Cl)cc1NC(=O)NC1CCCCC1 | inconclusive: -0.914% |  |
| Clc1ccccc1COc1ccccc1-c1nnco1 | inconclusive: 21.6% |  |
| O=C1NC(c2ccc(F)cc2)Oc2ccccc21 (stereo not given) | inconclusive: 29.3% |  |
| CCN(CC)S(=O)(=O)c1ccc(Cl)c(NC(=O)c2ccccc2C)c1 |  | inconclusive: 14.6 µM [falling, partial curve] |
| Cc1sc(NC(=O)C2=COCCO2)nc1-c1ccc(Br)cc1 | inconclusive: -53% |  |
| COc1ccc([N+](=O)[O-])cc1NC(=O)COC(=O)/C=C/c1ccco1 | inconclusive: 21.7% |  |
| O=C(C1CSC2(c3ccc(F)cc3)CCC(=O)N12)N1CCCCCC1 (stereo not given) |  | active: 18.4 µM |
| O=[N+]([O-])c1cc(-c2ccc(/C=N\n3cnnc3)o2)cc([N+](=O)[O-])c1 |  | inconclusive: 0.206 µM [falling, full curve, poor fit] |
| COc1ccc(CC(=O)OCC(=O)NCc2ccccc2Cl)cc1 | inconclusive: -14.1% |  |
| COc1cc2c(cc1OC)C(c1ccccc1)N(C(=O)c1ccco1)CC2 (stereo not given) | inconclusive: 6.21% |  |
| Cc1nc2c(sc3nc4c(cc32)COC(C)(C)C4)c(=O)o1 | inconclusive: 21% |  |
| O=C(CCC1COc2ccccc2O1)Nc1ccc(Cl)cn1 (stereo not given) | inconclusive: 9.84% |  |
| COc1ccc(/C=N/OCC(=O)N2CCCC2)c(OC)c1 |  | inconclusive: 29.1 µM [activator, single point] |
| O=C(N/C(=C/c1cccs1)C(=O)N1CCOCC1)c1cccs1 | inconclusive: -19.5% |  |
| CN(Cc1ccccc1)C(=O)CSc1nc2ccccc2[nH]1 |  | inconclusive: 29.1 µM [rising, partial curve] |
| Cc1c(Cl)cccc1NC(=O)COC(=O)c1c2c(nc3ccccc13)CCN(Cc1ccccc1)C2 | inconclusive: -21.6% |  |
| Cc1c(NC(=O)CC2NC(=O)NC2=O)c(=O)n(-c2ccccc2)n1C (stereo not given) | inconclusive: -24.4% |  |
| CC(=O)Nc1ccc(/C(C)=N/Nc2nc(Nc3cccc4ccccc34)nc(N3CCOCC3)n2)cc1 | inconclusive: 21.8% |  |
| O=C(Nc1ccc2oc(-c3ccccc3)nc2c1)c1cc(-n2cnnc2)ccc1Cl |  | inconclusive: 0.58 µM [activator, full curve] |
| O=C(CSc1nnc(-c2cccs2)n1-c1ccccc1)NCc1ccc2c(c1)OCO2 |  | inconclusive: 0.82 µM [activator, full curve, poor fit] |
| CC(=O)c1sc2nc(-c3ccc(C)cc3)c3c(c2c1N)CCCC3 | inconclusive: 12.2% |  |
| O=C(O)c1c2c(nc3ccccc13)-c1ccccc1CC2 |  | inconclusive: 6.51 µM [falling, full curve] |
| COc1ccccc1N(CC(=O)NC1CCCC1)S(=O)(=O)c1ccc(C)cc1 | inconclusive: -40.9% |  |
| O=C(/C(=C(\O)c1ccccc1)c1nc2ccccc2[nH]1)c1ccccc1 | inconclusive: -1.05% |  |
| Clc1ccc(NCc2nncn2-c2ccccc2)cc1 |  | inconclusive: 25.9 µM [activator, single point] |
| O=C(CN1C(=O)C2CCCCN2C(=O)c2ccccc21)Nc1ccc(F)cc1 (stereo not given) | inconclusive: -9.2% |  |
| COc1cccc(NC(=O)NC2CC(=O)N(c3ccc4c(c3)OCCO4)C2)c1 (stereo not given) | inconclusive |  |

Taken from above:
O=C(CCC1COc2ccccc2O1)Nc1ccc(Cl)cn1 (stereo not given) | lipid storage change, negative = inhibition: inconclusive: 9.84%
COc1ccc(Cl)cc1NC(=O)NC1CCCCC1 | lipid storage change, negative = inhibition: inconclusive: -0.914%
Clc1ccccc1COc1ccccc1-c1nnco1 | lipid storage change, negative = inhibition: inconclusive: 21.6%
CC(=O)c1sc2nc(-c3ccc(C)cc3)c3c(c2c1N)CCCC3 | lipid storage change, negative = inhibition: inconclusive: 12.2%
COc1cc2c(cc1OC)C(c1ccccc1)N(C(=O)c1ccco1)CC2 (stereo not given) | lipid storage change, negative = inhibition: inconclusive: 6.21%
CN(Cc1ccccc1)C(=O)CSc1nc2ccccc2[nH]1 | Potency: inconclusive: 29.1 µM [rising, partial curve]

Next part:

| SMILES | lipid storage change, negative = inhibition | Potency |
| --- | --- | --- |
| O=C(O)c1cccnc1Cl | inconclusive: 6.9% |  |
| Nn1c(SCc2ccc(F)cc2)nnc1-c1ccccn1 |  | inconclusive: 8.2 µM [activator, partial curve, poor fit] |
| CC(Oc1ccccc1)C(=O)Nc1ccc(F)c(S(=O)(=O)N2CCOCC2)c1 (stereo not given) |  | inconclusive: 6.51 µM [falling, single point] |
| CCCCNC(=O)c1ccccc1SCc1c(C)noc1C | inconclusive: 14.3% |  |
| CC(=O)Nc1ccc(C2NC(=O)CCC2[N+](=O)[O-])cc1 (stereo not given) | inconclusive: 27% |  |
| CCCCCC(=O)N1CCN(CCN=CC2=C(O)CC(c3cccs3)CC2=O)CC1 (stereo not given) | inactive |  |
| CC1CCC2(CC1)NC(=O)N(NC(=O)c1cccc(N(C)C)c1)C2=O (stereo not given) | inconclusive: 6.53% |  |
| Nc1nc(CSC(=S)N2CCN(c3ccccc3)CC2)nc(Nc2ccccc2)n1 |  | inconclusive: 0.231 µM [activator, partial curve, poor fit] |
| Cn1c(=O)[nH]c(=O)c2[nH]c(CN3CCN(C(=O)c4ccco4)CC3)nc21 | inconclusive: -1.94% |  |
| CCN(Cc1ccncc1)C(=O)c1cc(COc2ccc(F)cc2F)on1 | inactive |  |
| O=C(/C=C/Nc1ccccc1)c1ccccc1 |  | inconclusive: 8.2 µM [rising, partial curve] |
| COc1ccc(-c2c[nH]c(=O)[nH]c2=O)cc1OC | inconclusive: -1.9% |  |
| Cc1cc(OC(=O)c2cc(Br)ccc2Cl)c([N+](=O)[O-])c(=O)[nH]1 | inconclusive: 10% |  |
| Cc1cc(CN(C)C(=O)c2ccc3nc(Cc4ccccc4F)oc3c2)n[nH]1 | inconclusive: 6.89% |  |
| CCCn1cnc2scc(-c3ccc(C)c(C)c3)c2c1=O | inconclusive: -14.9% |  |
| CSc1ccc(/C=N/Nc2nc(C)cc(=O)[nH]2)cc1 | inconclusive: 7.37% |  |
| COc1ccccc1C(C)Nc1nc(-c2cccnc2)nc2ccccc12 (stereo not given) | inconclusive: -26.7% |  |
| O=C(CSCc1ccc([N+](=O)[O-])cc1)NC1CCCCCC1 | inconclusive: 12.1% |  |
| Cc1ccc(S(=O)(=O)N2CCOCC2)cc1NC(=O)COc1cccc(-n2cnnn2)c1 |  | inconclusive: 0.0046 µM [rising, full curve, poor fit] |
| CC(C)(C)C(=O)NC(=S)NNC(=O)c1ccc(Cl)cc1Cl | inconclusive: -17.5% |  |
| Cc1cc(C)cc(C(=O)NC(=S)Nc2cccnc2)c1 | inconclusive: -1.08% |  |
| COc1ccc2c(c1)nc(NCCCO)n2Cc1ccccc1 | inconclusive: 13.4% |  |
| CCCNc1nc(C)cc(-c2cc(C(=O)NC3CCCC3)on2)n1 | inconclusive: 5.15% |  |
| O=C(COC(=O)/C=C/c1ccccc1)NCc1ccccc1Cl | inactive |  |
| FC(F)(F)c1nc(N2CCN(c3ccccc3)CC2)nc2c1CCCCC2 | inconclusive: 49.5% |  |
| CCCOc1ccc(/C=C2/C(=O)ON=C2C)cc1Cl | inconclusive: -26.7% |  |
| CCOc1cc(C(=O)N/N=C/c2ccsc2)cc(OCC)c1OCC | inconclusive: 6.72% |  |

| SMILES | lipid storage change, negative = inhibition | Potency |
| --- | --- | --- |
| Nn1c(SCc2cccc(F)c2)nnc1-c1ccncc1 | inconclusive: 39.1% |  |
| Oc1ccc(NCc2ccccc2OCc2ccccc2)cc1 |  | inconclusive: 29.1 µM [activator, partial curve, poor fit] |
| COc1ccc2c3c(cccc13)C(=O)CC2 |  | inconclusive: 25.9 µM [falling, single point] |
| CS(=O)(=O)NCCSCc1c(F)cccc1Cl |  | inconclusive: 29.1 µM [cytotoxic, partial curve, poor fit] |
| COc1cccc(NC(=O)CN(C)C(=O)C23CC4CC(CC(Cl)(C4)C2)C3)c1 |  | inconclusive: 8.2 µM [falling, partial curve, poor fit] |
| CN1CCN(c2nc(-c3cccs3)cs2)CC1 | inconclusive: -1.06% |  |
| CCN(CC)C(=O)c1nc[nH]c1C(=O)N(CC)CC |  | inconclusive: 0.259 µM [activator, full curve] |
| CCCCNC(=O)c1nn2c(C(F)(F)F)cc(-c3ccccc3)nc2c1Br |  | inconclusive: 6.51 µM [falling, single point] |
| CC(C)(C)C(=O)NC(=S)Nc1ccc(S(=O)(=O)Nc2nccs2)cc1 | inconclusive: -15.9% |  |
| CC(C)N(C(=O)Cn1c(-c2cccnc2)ccc(C#N)c1=O)C(C)C |  | inconclusive: 29.1 µM [activator, single point] |
| COc1cc(Cl)cc(/C=N/NC(N)=O)c1O | inconclusive: 20.4% |  |
| O=C(c1ccco1)c1coc2c1cc(O)c1ccccc12 | inconclusive: 13.1% |  |
| Cc1noc(C)c1COc1ncnc2ccccc12 |  | inconclusive: 0.146 µM [falling, full curve, poor fit] |
| COc1ccc(NC(=O)CSc2nnc(C)n2C2CCCCC2)cc1 | inconclusive: -18.3% |  |
| O=c1cc(CN2CCN(C/C=C/c3ccccc3)CC2)c2cc(O)c(-c3ccccc3)cc2o1 | inconclusive: 30.8% |  |
| CCN1CCc2c(OCC(=O)N3N=C(c4cccs4)CC3c3ccc(F)cc3)cccc2C1=O (stereo not given) |  | inconclusive: 29.1 µM [cytotoxic, single point] |
| Cc1cnc(NC(=O)CSc2ncc(-c3ccccc3)n2Cc2ccco2)s1 |  | inconclusive: 2.91 µM [activator, full curve] |
| COc1ccc(C2Nc3ccccc3C(=O)N2Cc2ccco2)cc1COc1ccc(NC(C)=O)cc1 (stereo not given) | inconclusive: 9.46% |  |
| Cc1ccc(/C=N/NC(=O)Cc2cccs2)o1 |  | inconclusive: 13 µM [rising, partial curve, poor fit] |
| CCC(C)[C@H]1CNC(=S)N1CCc1cccc2ccccc12 (stereo not given in full) | inconclusive: 15.7% |  |
| COc1ccc(OCC(=O)N/N=C\c2ccco2)cc1 | inconclusive: 11.5% |  |
| Cc1nnc(SCC(=O)Nc2ccc3c4c(cccc24)CC3)n1C | inconclusive: -0.424% |  |
| COc1c2c(cc3c1C(CC(O)Cc1ccccc1)N(C)CC3)OCO2 (stereo not given) | inconclusive: 8.32% |  |
| CC1CCCCN1C(=O)NC1CC(=O)N(c2ccc3c(c2)OCCO3)C1 (stereo not given) | inconclusive |  |
| CC(=O)C1C(c2ccc([N+](=O)[O-])cc2)c2c(noc2C)CC1(C)O (stereo not given) | inconclusive: -20.3% |  |
| Cc1cc(C(=O)c2ccccc2)nc2ccccc12 |  | inconclusive: 5.17 µM [activator, single point] |

From PubChem BioAssay AID2685 (National Center for Advancing Translational Sciences (NCATS), 2010)
